According to US20240010723A1 (IBEX BIOSCIENCES, published 2024):
No constants are given. Whether binding was seen depends on the method and setting. Some entries that bind do so weakly or less than the wild type.

Amino acid sequences for entries named in this document (tags omitted). A change or cut given only in a name is not applied to a line headed by its entry.
UniProt P35613: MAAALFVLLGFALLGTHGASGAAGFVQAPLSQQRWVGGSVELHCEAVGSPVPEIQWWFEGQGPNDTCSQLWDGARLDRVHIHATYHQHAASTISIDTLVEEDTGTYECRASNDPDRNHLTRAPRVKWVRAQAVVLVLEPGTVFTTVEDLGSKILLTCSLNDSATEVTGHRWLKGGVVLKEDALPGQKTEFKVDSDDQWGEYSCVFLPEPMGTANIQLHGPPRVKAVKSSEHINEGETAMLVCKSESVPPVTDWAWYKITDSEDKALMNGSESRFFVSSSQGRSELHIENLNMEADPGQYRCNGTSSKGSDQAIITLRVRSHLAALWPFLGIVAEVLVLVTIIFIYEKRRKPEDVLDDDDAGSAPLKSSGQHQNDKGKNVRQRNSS

Legend:
[1] = target: Human CD147 expressed on cells (HEK 293, HCC 1954, HeLa, Jurkat) (human) (UniProt P35613); assay: flow cytometry on Jurkat cells
[2] = target: Human CD147 (Uniprot P35613), recombinant protein (human) (UniProt P35613); assay: ELISA, human CD147 coated (FIG. 1)
[3] = target: Human CD147 (Uniprot P35613), recombinant protein (human) (UniProt P35613); assay: SPR, CD147 as analyte (Example 3, FIG. 4)
[4] = target: Human CD147 (Uniprot P35613), recombinant protein (human) (UniProt P35613); assay: SPR, CD147 as analyte (Example 3, FIG. 5)
[5] = target: Human CD147 expressed on cells (HEK 293, HCC 1954, HeLa, Jurkat) (human) (UniProt P35613); assay: flow cytometry on HeLa cells, anti-Flag Dylight488
[6] = target: Human CD147 expressed on cells (HEK 293, HCC 1954, HeLa, Jurkat) (human) (UniProt P35613); assay: flow cytometry on HeLa and HCC-1954 cells, 10 µg antibody
[7] = target: Human CD147 expressed on cells (HEK 293, HCC 1954, HeLa, Jurkat) (human) (UniProt P35613); assay: flow cytometry on HEK 293 and HCC 1954 cells, 1 µg Ibx-77, anti-Flag Dylight488
[8] = target: Human CD147 (Uniprot P35613), recombinant protein (human) (UniProt P35613); assay: SPR, CD147 immobilized on CMD chip, Ibx-77 injected at 9.22-360 nM (Example 4, FIG. 6)
[9] = target: Human CD147 (Uniprot P35613), recombinant protein (human) (UniProt P35613); assay: SPR, CD147 immobilized on CMD chip, Ibx-77 injected at 9.22-360 nM (Example 4, FIG. 7)
[10] = target: Human CD147 (Uniprot P35613), recombinant protein (human) (UniProt P35613); assay: SPR sensorgram comparison

Measured: binding

B1: Ibx-77 (dimer of Ibx-14) (VHH, not shown: small tags and cut ends)
chain: QVQLVESGGGLVQAGDSLTLSCAASGRSLSSNAMGWFRQAPGKEREFVSGTTWHAGTQYYAYAADSVKGRFTTSRDNANTVSLQMKRLKPEDTAVYYCAAAVSGPGYDSWGQGTQVTVSSEPKIPQPQPKPQPQPQPQPQPKPQPEPQVQLVESGGGLVQAGDSLTLSCAASGRSLSSNAMGWFRQAPGKEREFVSGTTWHAGTQYYAYAADSVKGRFTTSRDNANTVSLQMKRLKPEDTAVYYCAAAVSGPGYDSWGQGTQVTVSS
notes: Tandem bivalent VhH without Fc
not listed: [10]
binds: all other assays above

B2: Ibx-75 (dimer of Ibx-12) (VHH)
chain: QVRLVESGGGLVQAGDSLRLSCQASGGTFTTYAMGWFRQAPGQEREFVSATTWSTGTSYYAYAADSVKGRFTTSRDNDNTVTLTMKRLKPDDTAVYYCSADPDGSDWAHSARQLRYWGQGTQVTVSSEPKIPQPQPKPQPQPQPQPQPKPQPEPQVRLVESGGGLVQAGDSLRLSCQASGGTFTTYAMGWFRQAPGQEREFVSATTWSTGTSYYAYAADSVKGRFTTSRDNDNTVTLTMKRLKPDDTAVYYCSADPDGSDWAHSARQLRYWGQGTQVTVSS
notes: Tandem bivalent VhH without Fc; also called tandem bivalent Ibx-75; not shown: Flag tag, since detection was with anti-flag
binds: [10] | [2]

B3: Ibx-74 (dimer of Ibx-11) (VHH)
chain: QVRLEESGGGLVQAGGSLRLSCAASGLAFSIYGMGWFRQAPGKEREFVSVVDNTGSTTLYADSVKGRFTISRDNAKNTVYLQMSSLEPEDTAVYYCGAGPKNYLGSHEYAYWGQGTQVTVSSEPKIPQPQPKPQPQPQPQPQPKPQPEPQVRLEESGGGLVQAGGSLRLSCAASGLAFSIYGMGWFRQAPGKEREFVSVVDNTGSTTLYADSVKGRFTISRDNAKNTVYLQMSSLEPEDTAVYYCGAGPKNYLGSHEYAYWGQGTQVTVSS
notes: Tandem bivalent VhH
binds: [10]

B4: Ibx-76 (dimer of Ibx-13) (VHH)
chain: QVQLVESGGGLVQPGGSLRLSCTASEDTFSTYAIGWFRQAPGQGREFVAGITANGIATRYNDSLKDRFTISRDNAKNTVYLQMNSLQPEDTAVYSCGADTRRFSLPSTVHEIDYWGQGTQVTVSSEPKIPQPQPKPQPQPQPQPQPKPQPEPQVQLVESGGGLVQPGGSLRLSCTASEDTFSTYAIGWFRQAPGQGREFVAGITANGIATRYNDSLKDRFTISRDNAKNTVYLQMNSLQPEDTAVYSCGADTRRFSLPSTVHEIDYWGQGTQVTVSS
notes: Tandem bivalent VhH without Fc; not shown: Flag tag, since detection was with anti-flag
binds: [2]
